Reference: patent US11136339B2, “Dihydroartemisinin diploid derivative, pharmaceutical composition thereof, and application” (priority 2017, dated 2021)
At least one structure is not confirmed: it was looked up by name or label, or the drawing left a doubt.

How the values were obtained:
[1] = system: lupus model of a MRL/lpr mouse; experiment: Animal test on treating systemic lupus erythematosus; format: in vivo; conditions: after eight weeks
[2] = system: II-type collagen induced rheumatoid arthritis model rat; experiment: Effect on an animal model with rheumatoid arthritis; format: in vivo

In the case of `C[C@H]1[C@@H](O)O[C@@H]2O[C@@]3(C)CC[C@H]4[C@H](C)CC[C@@H]1[C@@]24OO3` [Dihydroartemisinin], the “number of intraglomerular cells and lymphocyte infiltration (kidney, HE staining)” value [1] was “higher than those of the mouse in the dihydroartemisinin dimer phosphatidylcholine group” and the “overall therapeutic effect on rheumatoid arthritis” value [2] was “slightly worse”.
